PubChem BioAssay AID1259326, Drosophila RNAi Screening Center – 2017

Test: 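RNAi screen for genes modifying zinc chloride toxicity in fly cells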
System: Drosophila S2R+ cells
Knock-down reagent: long dsRNA against Drosophila genes
Duration: about 5 days (4 days of RNAi, then 1 day of zinc)
Conditions: zinc chloride added to 15 mM final for one day
Read-out: 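Luminescent ATP signal marks surviving cells, read after RNAi for 4 days then 15 mM zinc chloride for 1 day; z-scores are replicate means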
Reading the numbers: averaged z-score: higher = more ATP than other wells, i.e. more surviving cells, after zinc; ATP luminescence: higher = more ATP, i.e. more surviving cells
Rule for the call: 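Called active when the averaged z-score lies outside -1.5 to 1.5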
Here is one part, drawn at random, of 573 reagents tested. 39 of all reagents (6.8%) were called active. 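All actives have raised ATP, meaning more surviving cells; in these data active calls sit at averaged z-scores near 1.5 or above.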 Raw values vary from plate to plate and are shown uncorrected. Reagent sequences are not shown. Not stated in the record: the amount of reagent.

Khc (Kinesin heavy chain) [DRSC24335] showed averaged z-score -0.121; ATP luminescence, replicate 1 = 98265; ATP luminescence, replicate 2 = 74306; inactive.
After knock-down of Khc (Kinesin heavy chain) [DRSC31941] the results were averaged z-score -0.296; ATP luminescence, replicate 1 = 66788; ATP luminescence, replicate 2 = 67360; inactive.
Against Khc (Kinesin heavy chain) [DRSC31942], the values are averaged z-score -0.0193; ATP luminescence, replicate 1 = 84901; ATP luminescence, replicate 2 = 78091; inactive.
For Rpt2 (Regulatory particle triple-A ATPase 2) [DRSC25012] the deposit lists averaged z-score -0.332; ATP luminescence, replicate 1 = 90178; ATP luminescence, replicate 2 = 74918; inactive.
Against Rpt2 (Regulatory particle triple-A ATPase 2) [DRSC32051], the values are averaged z-score 0.958; ATP luminescence, replicate 1 = 1.08e5; ATP luminescence, replicate 2 = 82671; inactive.
Knock-down of Rpt2 (Regulatory particle triple-A ATPase 2) [DRSC32052] came out at: averaged z-score 0.457; ATP luminescence, replicate 1 = 79566; ATP luminescence, replicate 2 = 82294; inactive.

Records listed so far whose target name starts with R or r:
Rpt2 (Regulatory particle triple-A ATPase 2) [DRSC25012]: averaged z-score = -0.332; ATP luminescence, replicate 1 = 90178; ATP luminescence, replicate 2 = 74918; Call = inactive
Rpt2 (Regulatory particle triple-A ATPase 2) [DRSC32051]: averaged z-score = 0.958; ATP luminescence, replicate 1 = 1.08e5; ATP luminescence, replicate 2 = 82671; Call = inactive
Rpt2 (Regulatory particle triple-A ATPase 2) [DRSC32052]: averaged z-score = 0.457; ATP luminescence, replicate 1 = 79566; ATP luminescence, replicate 2 = 82294; Call = inactive

Continued.
Depletion of Cam (Calmodulin) [DRSC07354] gave: averaged z-score -0.132; ATP luminescence, replicate 1 = 80698; ATP luminescence, replicate 2 = 76324; inactive.
Cam (Calmodulin) [DRSC36150] showed averaged z-score -0.0123; ATP luminescence, replicate 1 = 71848; ATP luminescence, replicate 2 = 81162; inactive.
Depletion of Cam (Calmodulin) [DRSC41162] came out at: averaged z-score -0.329; ATP luminescence, replicate 1 = 67715; ATP luminescence, replicate 2 = 71205; inactive.
After knock-down of Atg6 (Autophagy-related 6) [DRSC15798] the results were averaged z-score -0.565; ATP luminescence, replicate 1 = 78640; ATP luminescence, replicate 2 = 58508; inactive.
Silencing of Atg6 (Autophagy-related 6) [DRSC24442] came out at: averaged z-score -0.11; ATP luminescence, replicate 1 = 77971; ATP luminescence, replicate 2 = 69292; inactive.
Against Atg6 (Autophagy-related 6) [DRSC41155] the deposit lists averaged z-score -0.503; ATP luminescence, replicate 1 = 58681; ATP luminescence, replicate 2 = 75175; inactive.
